Data on four substances can be found in article PMC7429845.

Sequences of proteins named here, by UniProt entry; tags and fusion partners are left off. Residues count along the entry.
UniProt O14763, residues 56-440: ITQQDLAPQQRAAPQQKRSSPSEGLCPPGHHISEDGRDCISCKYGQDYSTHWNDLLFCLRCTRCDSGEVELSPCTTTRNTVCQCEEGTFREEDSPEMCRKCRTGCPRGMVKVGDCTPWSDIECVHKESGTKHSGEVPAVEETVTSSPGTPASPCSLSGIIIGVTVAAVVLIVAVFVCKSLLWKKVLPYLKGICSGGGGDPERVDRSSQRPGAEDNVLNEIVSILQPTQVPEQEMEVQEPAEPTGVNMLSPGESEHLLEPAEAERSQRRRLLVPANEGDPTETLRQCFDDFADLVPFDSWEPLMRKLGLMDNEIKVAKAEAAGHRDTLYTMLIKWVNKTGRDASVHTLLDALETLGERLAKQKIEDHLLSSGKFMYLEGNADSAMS
UniProt Q13616: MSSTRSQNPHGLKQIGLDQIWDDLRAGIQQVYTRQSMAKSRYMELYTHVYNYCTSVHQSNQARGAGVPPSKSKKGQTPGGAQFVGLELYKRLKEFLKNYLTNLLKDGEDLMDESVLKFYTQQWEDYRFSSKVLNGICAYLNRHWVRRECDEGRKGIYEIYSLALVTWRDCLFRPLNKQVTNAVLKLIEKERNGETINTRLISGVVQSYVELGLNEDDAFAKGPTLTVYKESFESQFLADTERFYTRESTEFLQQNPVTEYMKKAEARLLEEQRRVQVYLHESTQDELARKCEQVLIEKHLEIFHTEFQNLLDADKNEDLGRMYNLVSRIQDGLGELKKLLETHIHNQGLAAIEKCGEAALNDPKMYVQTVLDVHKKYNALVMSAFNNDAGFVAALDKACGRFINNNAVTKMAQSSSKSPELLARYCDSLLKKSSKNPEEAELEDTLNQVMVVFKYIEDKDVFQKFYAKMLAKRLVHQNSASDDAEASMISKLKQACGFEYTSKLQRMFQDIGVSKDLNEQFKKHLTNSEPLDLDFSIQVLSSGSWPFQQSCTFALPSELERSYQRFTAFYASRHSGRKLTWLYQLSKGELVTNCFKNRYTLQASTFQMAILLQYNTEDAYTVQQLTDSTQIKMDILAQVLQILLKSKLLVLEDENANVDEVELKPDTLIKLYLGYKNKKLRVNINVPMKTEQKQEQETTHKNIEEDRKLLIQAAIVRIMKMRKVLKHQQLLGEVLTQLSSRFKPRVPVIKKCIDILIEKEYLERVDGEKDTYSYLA
UniProt Q14790: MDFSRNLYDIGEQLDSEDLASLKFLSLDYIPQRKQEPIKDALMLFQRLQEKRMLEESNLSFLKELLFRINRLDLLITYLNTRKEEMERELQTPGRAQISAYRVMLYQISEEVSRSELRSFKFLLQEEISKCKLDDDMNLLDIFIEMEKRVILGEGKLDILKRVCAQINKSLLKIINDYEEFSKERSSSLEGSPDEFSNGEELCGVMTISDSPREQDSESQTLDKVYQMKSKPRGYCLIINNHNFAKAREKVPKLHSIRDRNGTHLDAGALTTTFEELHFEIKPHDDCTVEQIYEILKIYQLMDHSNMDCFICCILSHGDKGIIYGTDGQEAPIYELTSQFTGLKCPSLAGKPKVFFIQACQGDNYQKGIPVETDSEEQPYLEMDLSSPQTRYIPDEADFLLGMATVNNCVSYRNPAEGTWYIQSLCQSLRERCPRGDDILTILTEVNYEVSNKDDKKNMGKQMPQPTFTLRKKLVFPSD
UniProt Q13158: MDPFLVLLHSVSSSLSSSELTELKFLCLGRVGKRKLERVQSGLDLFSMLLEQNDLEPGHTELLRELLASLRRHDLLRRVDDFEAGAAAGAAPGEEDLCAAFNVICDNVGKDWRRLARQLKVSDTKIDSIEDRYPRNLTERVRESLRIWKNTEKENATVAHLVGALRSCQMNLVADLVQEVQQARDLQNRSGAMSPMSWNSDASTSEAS
UniProt Q13546: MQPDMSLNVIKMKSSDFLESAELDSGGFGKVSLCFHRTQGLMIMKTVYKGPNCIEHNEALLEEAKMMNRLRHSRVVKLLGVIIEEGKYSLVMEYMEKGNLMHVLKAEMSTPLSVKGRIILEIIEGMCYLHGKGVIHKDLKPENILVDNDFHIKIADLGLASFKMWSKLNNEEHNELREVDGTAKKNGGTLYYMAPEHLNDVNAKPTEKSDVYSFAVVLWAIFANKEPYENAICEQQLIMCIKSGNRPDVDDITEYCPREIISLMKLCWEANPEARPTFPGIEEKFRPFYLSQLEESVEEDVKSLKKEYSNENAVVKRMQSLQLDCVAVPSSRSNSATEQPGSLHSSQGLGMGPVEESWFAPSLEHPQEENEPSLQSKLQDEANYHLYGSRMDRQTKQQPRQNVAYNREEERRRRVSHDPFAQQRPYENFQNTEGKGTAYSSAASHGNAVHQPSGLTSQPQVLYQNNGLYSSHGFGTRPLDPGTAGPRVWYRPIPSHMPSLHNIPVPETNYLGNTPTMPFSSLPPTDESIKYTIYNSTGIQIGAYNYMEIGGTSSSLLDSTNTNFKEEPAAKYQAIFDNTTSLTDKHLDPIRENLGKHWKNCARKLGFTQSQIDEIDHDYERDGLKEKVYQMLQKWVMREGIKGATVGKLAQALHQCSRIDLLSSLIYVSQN
UniProt P63208: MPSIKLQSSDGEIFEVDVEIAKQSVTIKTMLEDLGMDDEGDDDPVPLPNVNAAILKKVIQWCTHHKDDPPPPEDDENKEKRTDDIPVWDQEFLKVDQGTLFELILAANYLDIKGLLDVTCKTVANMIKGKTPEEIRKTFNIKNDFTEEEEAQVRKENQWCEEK

Test [1] deals with TRAIL-R2 (human (endogenous in HCT116)) (UniProt O14763). In words: co-IP; TRAIL-R2 DISC IP: anti-TRAIL-R2 agonist antibody AMG655 (Conatumumab) on Dynabeads added to live cells (receptor activated, up to 3 h); DISC IP buffer (20 mM Tris 7.4, 150 mM NaCl, 0.2% NP-40, 10% glycerol), 4 °C; blots; HCT116 (parental, BAX-null, p53-null, FADD or caspase-8 knockout), HT29, A549, HAP1; with or without zVAD-fmk, MG132, siRNAs.

Test [2] has as its target Myc-tagged Cullin-1 (UniProt Q13616). In words: co-IP; Fig. 6b: Cullin-1 pulled down from cells transfected with Cullin-1 with or without p43-FLIP(L); SDS-free RIPA buffer, 4 °C; blots for p43-FLIP(L) and endogenous Rbx1, Skp1, Skp2, TRAF2, caspase-8, FADD.
Test [3] addresses TRAIL-R2 (human (endogenous in HCT116)) (UniProt O14763). Description: co-IP; TRAIL-R2 DISC IP timecourse, HCT116 BAX-null cells, 0 min: unstimulated TRAIL-R2 (pre-ligand association complex, PLAC).
The target is the same in test [4]. In words: co-IP; TRAIL-R2 DISC IP (1 h) as a1, in RKO cells.
Test [5] concerns the target FLAG-tagged procaspase-8 (UniProt Q14790). Description: co-IP; cells transfected with FLIP, procaspase-8, FADD, Cullin-1 or Skp2 constructs (cell line not stated); SDS-free RIPA buffer (50 mM Tris pH 7.4, 150 mM NaCl, 5 mM EDTA, 1% Triton X-100), 4 °C; IP with FLAG (M2) magnetic beads, FLIP (H-202) antibody or Myc-Tag (9B11) antibody (which one in which panel is not stated); blots; with or without co-transfected Cullin-1 or procaspase-8.

In test [6] the target is FADD (transfected) (UniProt Q13158). Described as above.

No constants are given. Whether binding was seen depends on the method and setting. In cells and extracts the contact can be indirect. Some binding calls cover weakened binding; strength is not graded here.

Take “FADD (endogenous) (from UniProt Q13158 1-208)”: the binding entry in test [1] is given as “binds”; in test [2], “no binding”.

With “RIPK1 (endogenous) (from UniProt Q13546 1-671)”, in test [1], the binding result was “binds”.

“Skp1 (endogenous) (from UniProt P63208 1-163)”: the binding result is “binds” in test [3]; “binds” in test [1]; “binds weakly” in test [4]; “no binding” in test [5]; “no binding” in test [6].

As to “caspase-8 (endogenous) (from UniProt Q14790 1-479) (enzyme)”, the binding entry in test [2] is listed as “no binding”.
